Source: patent publication US20090209517A1, “Use of 5H-dibenz/b,f/azepine-5-carboxamide derivatives in the treatment of neuropathic pain and neurological disorders” (priority 2006, published 2009)

Tested on: mice
Assay: Efficacy-risk indexes calculated from formalin paw test, rotarod test and sedation
Type: in vivo
Conditions: for Efficacy-Risk (motor impairment × sedation) Index: Efficacy-Risk (Motor) Index / % sedation; for Efficacy-Risk (motor) Index: licking time (s) at 100 mg/kg / rotarod ED50 (mg/kg); for Efficacy-Risk (sedation) Index: licking time (s) at 100 mg/kg / sedation (%) at 300 mg/kg; for Safety margin over carbamazepine, Efficacy-Risk (motor impairment × sedation) Index / Safety margin over carbamazepine, Efficacy-Risk (motor) Index / Safety margin over carbamazepine, Efficacy-Risk (sedation) Index: ratio to carbamazepine index; for Safety margin over oxcarbazepine, Efficacy-Risk (motor impairment × sedation) Index / Safety margin over oxcarbazepine, Efficacy-Risk (motor) Index / Safety margin over oxcarbazepine, Efficacy-Risk (sedation) Index: ratio to oxcarbazepine index

NC(=O)N1c2ccccc2C=Cc2ccccc21 [CBZ, carbamazepine, reference compound]
Efficacy-Risk (motor impairment × sedation) Index: 0.002
Efficacy-Risk (motor) Index: 0.18
Efficacy-Risk (sedation) Index: 0.05
Safety margin over carbamazepine, Efficacy-Risk (motor impairment × sedation) Index: 1.0
Safety margin over carbamazepine, Efficacy-Risk (motor) Index: 1
Safety margin over carbamazepine, Efficacy-Risk (sedation) Index: 1.0
Safety margin over oxcarbazepine, Efficacy-Risk (motor impairment × sedation) Index: 8.1
Safety margin over oxcarbazepine, Efficacy-Risk (motor) Index: 9.0
Safety margin over oxcarbazepine, Efficacy-Risk (sedation) Index: 4.8

CC(=O)O[C@H]1Cc2ccccc2N(C(N)=O)c2ccccc21 [ESL, S-(−)-10-acetoxy-10,11-dihydro-5H-dibenz/b,f/azepine-5-carboxamide]
Efficacy-Risk (motor impairment × sedation) Index: 0.024
Efficacy-Risk (motor) Index: 0.24
Efficacy-Risk (sedation) Index: 3.36
Efficacy-Risk (motor) Index relative to that observed for CBZ (mouse, in vivo): 1.4 fold
Safety margin over carbamazepine, Efficacy-Risk (motor impairment × sedation) Index: 13.5
Safety margin over carbamazepine, Efficacy-Risk (motor) Index: 1.4
Safety margin over carbamazepine, Efficacy-Risk (sedation) Index: 63.4
Safety margin over oxcarbazepine, Efficacy-Risk (motor impairment × sedation) Index: 109.1
Safety margin over oxcarbazepine, Efficacy-Risk (motor) Index: 12.1
Safety margin over oxcarbazepine, Efficacy-Risk (sedation) Index: 302.4

NC(=O)N1c2ccccc2CC(=O)c2ccccc21 [Oxc, oxcarbazepine, reference compound]
Efficacy-Risk (motor impairment × sedation) Index: 0.000
Efficacy-Risk (motor) Index: 0.02
Efficacy-Risk (sedation) Index: 0.01
Safety margin over carbamazepine, Efficacy-Risk (motor impairment × sedation) Index: 0.1
Safety margin over carbamazepine, Efficacy-Risk (motor) Index: 0.1
Safety margin over carbamazepine, Efficacy-Risk (sedation) Index: 0.2
Safety margin over oxcarbazepine, Efficacy-Risk (motor impairment × sedation) Index: 1.0
Safety margin over oxcarbazepine, Efficacy-Risk (motor) Index: 1.0
Safety margin over oxcarbazepine, Efficacy-Risk (sedation) Index: 1.0

NC(=O)N1c2ccccc2C[C@@H](O)c2ccccc21 [R-Lic, R-licarbazepine]
Efficacy-Risk (motor impairment × sedation) Index: 0.019
Efficacy-Risk (motor) Index: 0.38
Efficacy-Risk (sedation) Index: 1.84
Safety margin over carbamazepine, Efficacy-Risk (motor impairment × sedation) Index: 10.6
Safety margin over carbamazepine, Efficacy-Risk (motor) Index: 2.1
Safety margin over carbamazepine, Efficacy-Risk (sedation) Index: 34.6
Safety margin over oxcarbazepine, Efficacy-Risk (motor impairment × sedation) Index: 85.1
Safety margin over oxcarbazepine, Efficacy-Risk (motor) Index: 18.9
Safety margin over oxcarbazepine, Efficacy-Risk (sedation) Index: 165.2
